Measured values: PubChem BioAssay AID1645878 (National Center for Advancing Translational Sciences (NCATS), 2021)
This list was built around the results that the source calls inconclusive (neither active nor inactive); the mix of calls is not that of the screen. Potencies of inconclusive entries are doubtful fits and often do not repeat. Calls of active or inactive are those of the source. Calls come from the whole dose curve; as a rule, active = well fitted inhibition curve with a large enough effect; inconclusive = small, poorly fitted or top-dose-only effect; inactive = no such curve, though single readings can be large or run the other way.

By UniProt entry, the sequences of proteins in these tests, tags left out. Where a name states a change or a piece, a line headed by the entry shows the natural chain unless it says otherwise.
UniProt P40261: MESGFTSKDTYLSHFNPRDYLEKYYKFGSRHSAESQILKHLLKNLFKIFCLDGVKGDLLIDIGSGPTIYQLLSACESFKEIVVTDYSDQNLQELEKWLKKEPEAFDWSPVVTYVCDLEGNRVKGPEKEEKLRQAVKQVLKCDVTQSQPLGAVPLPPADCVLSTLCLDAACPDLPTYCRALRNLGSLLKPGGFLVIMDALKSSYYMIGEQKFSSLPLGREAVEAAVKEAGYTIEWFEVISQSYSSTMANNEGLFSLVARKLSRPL

The compounds below were run against Nicotinamide N-methyltransferase (Homo sapiens) (UniProt P40261) (assay: Counterscreen qHTS for Inhibitors of N-terminal methyltransferase 1 (NTMT1): NNMT MTaseGlo assay). Settings: NNMT MTase-Glo luminescence, SAH detection; series mostly up to 57.1 µM.
Method in brief: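 MTase-Glo luminescence reports SAH formed during 30 min room-temperature methylation of 1 uM nicotinamide by 125 nM NNMT and 100 uM SAM. Compounds preincubated 15 min with enzyme; percent inhibition versus no-enzyme/DMSO controls fitted to Hill equation.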

| Structure (SMILES) | Potency |
| --- | --- |
| COc1cc2nc(N3CCN(C(=O)c4ccco4)C4CCCCC43)nc(N)c2cc1OC (centres undefined) | inactive |
| CC[C@@H](C)Nc1cc(C(=O)NC2CC3CC[C@@H](C2)N3c2ccc(C(=O)C3CC3)cn2)c(C)cc1C(N)=O (some centres undefined) | inactive |
| C[C@]12CC[C@@H]3c4ccc(O)c(O)c4CC[C@H]3[C@@H]1CCC2=O | active: 35.5 µM |
| CCOc1ccc(Nc2nc(-c3c(C)nc4ccccn34)cs2)cc1 | inconclusive: 39.8 µM [inhibitor, partial curve, poor fit] |
| Cc1ccc(NC(=O)N2CCN(c3nc(N)nc4sc(-c5cccnc5)nc34)CC2)cc1 | inactive |
| CN(C)C/C=C/C(=O)Nc1cc2c(Nc3ccc(F)c(Cl)c3)ncnc2cc1OC1CCOC1 (centres undefined) | inconclusive: 22.4 µM [inhibitor, partial curve] |
| Cc1cc(N2CCOCC2)cc2[nH]c(-c3c(NC[C@@H](O)c4cccc(Cl)c4)cc[nH]c3=O)nc12 | inconclusive: 14.1 µM [inhibitor, full curve, poor fit] |
| O=C(O)c1ccnc2cc(-c3nc4ccccc4n3CCN3CCCCC3)sc12 | inactive |
| C/C=C/c1ccc2oc(-c3ccc(O)c(OC)c3)c(C)c2c1 | inactive |
| COc1cccc(OCCCN)c1-c1cc(Nc2cnc(C#N)cn2)n[nH]1 | inactive |
| CC(C)(C)c1ccc(-c2nc3ccccc3[nH]2)cc1 | inconclusive: 12.6 µM [inhibitor, partial curve] |
| Nc1ncnc2c1nc(N)n2[C@@H]1O[C@H](CO)[C@@H](O)[C@H]1O | inactive |
| COc1cc2c(cc1OC)CN(CCc1ccc(NC(=O)c3cccc4c(=O)c5cccc(OC)c5[nH]c34)cc1)CC2 | active: 3.98 µM |
| NCCOc1cc(C(=O)Nc2cc(OCCN)c3ccccc3n2)nc(C(=O)Nc2cc(OCCN)c3ccccc3n2)c1 | inactive |
| COc1cc(N2CCC(O)CC2)ccc1Nc1nc(Nc2ccccc2S(=O)(=O)C(C)C)c2[nH]cnc2n1 | inconclusive: 39.8 µM [inhibitor, partial curve, poor fit] |
| CN(C)c1ccc(Nc2nc(N)n(C(=O)c3c(F)cccc3F)n2)cc1 | inactive |
| Cc1cc(-c2ncc(CC(=O)Nc3ccc(-c4cnccn4)cn3)cc2C)ccn1 | inconclusive: 44.7 µM [inhibitor, partial curve, poor fit] |
| CCN1CCN(Cc2ccc(Nc3ncc(F)c(-c4cc(F)c5nc(C)n(C(C)C)c5c4)n3)nc2)CC1 | inconclusive: 35.5 µM [inhibitor, partial curve] |
| CC(=O)N[C@@H](CC(C)C)C(=O)N[C@@H](CCC(=O)O)C(=O)N[C@@H](CCC(=O)O)C(=O)N[C@@H](CC(=O)O)C(=O)Nc1ccc2c(C(F)(F)F)cc(=O)oc2c1 | inactive |
| COc1cc2ncnc(Nc3cccc(I)c3)c2cc1OC | inconclusive: 35.5 µM [inhibitor, partial curve] |
| CN(C)c1nc(NC2CCC(NCCc3ccc(Br)cc3OC(F)(F)F)CC2)nc2ccccc12 (centres undefined) | active: 22.4 µM |
| CCN1CCC(n2cc(CNc3cc(Cl)c4ncc(C#N)c(Nc5ccc(F)c(Cl)c5)c4c3)nn2)CC1 | inconclusive: 28.2 µM [inhibitor, partial curve] |
| CC(=O)c1c(OCCN2CCCCC2)c(OCCC(C)c2ccc(F)cc2)c2oc(C)nc2c1C (centres undefined) | inconclusive: 44.7 µM [inhibitor, partial curve, poor fit] |
| CN(C)CCCn1cc(C2=C(c3c[nH]c4ccccc34)C(=O)NC2=O)c2ccccc21 | inconclusive: 28.2 µM [inhibitor, partial curve] |

Individual results from above:
Entry for `CN(C)CCCn1cc(C2=C(c3c[nH]c4ccccc34)C(=O)NC2=O)c2ccccc21` under Potency: inconclusive: 28.2 µM [inhibitor, partial curve]
Entry for `C[C@]12CC[C@@H]3c4ccc(O)c(O)c4CC[C@H]3[C@@H]1CCC2=O` under Potency: active: 35.5 µM
